In PubChem BioAssay AID720504 (National Center for Advancing Translational Sciences (NCATS), 2013):
The whole screen tested about 360,000 compounds, of which about 10,000 (2.8%) were called active. Inconclusive results, whose numbers are uncertain, are shown with a selection of clear calls. Calls come from the whole dose curve; as a rule, active = well fitted inhibition curve with a large enough effect; inconclusive = small, poorly fitted or top-dose-only effect; inactive = flat fitted curve, though single readings scatter. Potencies beside an inconclusive call are fits to weak or partial responses and may not hold up.
% is set by controls: 0 for no effect and ±100 for the full control effect; potency is the fitted concentration of half-maximal effect.
Note: nearly all actives have a fitted effect of over 65% in size.
Throughout, for max response, negative = inhibition: series mostly up to about 57 µM.

Chains of the proteins cited; added tags and fusions are not shown.
UniProt P53350, whole entry, looked up: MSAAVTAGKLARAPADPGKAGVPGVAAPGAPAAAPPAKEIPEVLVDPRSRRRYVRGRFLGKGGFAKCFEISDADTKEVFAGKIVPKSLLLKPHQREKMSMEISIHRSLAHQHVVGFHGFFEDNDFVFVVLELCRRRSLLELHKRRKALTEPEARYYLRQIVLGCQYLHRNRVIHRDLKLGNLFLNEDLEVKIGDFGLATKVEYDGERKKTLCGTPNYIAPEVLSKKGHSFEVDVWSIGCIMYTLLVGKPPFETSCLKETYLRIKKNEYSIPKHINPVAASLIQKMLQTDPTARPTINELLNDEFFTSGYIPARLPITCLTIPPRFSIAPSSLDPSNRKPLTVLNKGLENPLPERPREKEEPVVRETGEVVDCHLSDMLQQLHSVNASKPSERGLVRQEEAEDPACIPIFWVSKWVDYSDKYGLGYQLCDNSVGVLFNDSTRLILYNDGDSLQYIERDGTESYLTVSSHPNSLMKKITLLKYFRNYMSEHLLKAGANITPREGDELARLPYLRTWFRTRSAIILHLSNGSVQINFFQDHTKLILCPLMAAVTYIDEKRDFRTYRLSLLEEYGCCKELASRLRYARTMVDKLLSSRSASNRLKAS

The molecules below were run against Serine/threonine-protein kinase PLK1 (Homo sapiens) (UniProt P53350) (assay: qHTS for Inhibitors of PLK1-PDB (polo-like kinase 1 - polo-box domain): Primary Screen). Conditions: Plk1 PBD binding of FITC phosphopeptide, fluorescence polarization.
COc1ccc2c(c1OC)C(=O)OC2Nc1nc(-c2ccccc2)cs1 (stereo not given) was tested, and the Potency was inconclusive: 29.9 µM [inhibitor, partial curve].
In the case of C=CCn1cccc(C(=O)Nc2ccc(SC)cc2)c1=O, the max response, negative = inhibition was inactive: -2.78%.
With CCc1cc(C(=O)c2ccc(OC)cc2)c(NC(=O)CC(C)(C)CC(=O)O)s1 the Potency was inconclusive: 21.2 µM [inhibitor, single point].
O=C(O)Cn1cc(C(=S)N2CCCCC2)c2ccccc21 was tested, and the Potency was active: 15 µM.
CCOC(=O)c1c(C)n(C)c2ccc(OC)c(NC(=O)c3cccs3)c12 was tested, and the Potency was active: 29.9 µM.
For O=C(c1ccc(Cl)cc1)C(CN1CCCCC1)c1ccccc1 (stereo not given), the Potency was inconclusive: 15 µM [inhibitor, partial curve].
For OC(c1ccccc1)c1nc2ccccc2s1 (stereo not given), the Potency was active: 11.9 µM.
For Cc1ccc(NC(=O)COc2coc(CN3CCc4ccccc43)cc2=O)cc1Cl, the max response, negative = inhibition was inactive: -16.4%.
For O=C(CCNC(=O)N1CC(=O)Nc2ccccc21)Nc1cccc(Cl)c1, the Potency was inconclusive: 23.8 µM [inhibitor, single point].
In the case of S=C(NCC1CCCO1)N1CCN(c2nc(-c3ccc(Cl)cc3)cs2)CC1 (stereo not given), the Potency was inconclusive: 37.7 µM [inhibitor, single point].
In the case of Nc1c(C(=O)NCc2cccnc2)sc(=S)n1-c1ccccc1, the Potency was active: 16.8 µM.
For C1=Nc2ccccc2CN1c1ccccc1, the max response, negative = inhibition was inactive: 8.46%.
In the case of N#Cc1ccc(C(=O)CSc2n[nH]c(=O)n2Cc2ccco2)cc1, the max response, negative = inhibition was inactive: -3.8%.
CCc1ccc(NC(=O)CN2CCN(c3ccc(OC)cc3)CC2)cc1 was tested, and the Potency was inconclusive: 29.9 µM [inhibitor, partial curve].
In the case of O=C(NNS(=O)(=O)c1ccc(Br)cc1)c1cccs1, the Potency was inconclusive: 15 µM [inhibitor, partial curve].
With Cc1noc(C)c1-c1nc(CS(=O)(=O)c2ccccc2)no1 the max response, negative = inhibition was inactive: -9.45%.
For O=C(COC(=O)c1cc(S(=O)(=O)N2CCCC2)ccc1O)Nc1ccc(SC(F)F)cc1, the Potency was inconclusive: 21.2 µM [inhibitor, single point].
CSCCC(NC(N)=O)C(=O)Nc1ccc(C)cc1 (stereo not given) was tested, and the Potency was inconclusive: 29.9 µM [inhibitor, partial curve].
In the case of CN(C(=O)CSc1nnc(-c2ccc(F)cc2)c2ccccc12)C1CCS(=O)(=O)C1 (stereo not given), the Potency was inconclusive: 26.7 µM [inhibitor, partial curve].
With CCOC(=O)c1ccc(NC(=O)CSc2nc(C)cc(=O)[nH]2)cc1 the Potency was inconclusive: 29.9 µM [inhibitor, partial curve].
Cc1ccc(NC(=O)CN(c2ccc(Cl)cc2)S(=O)(=O)c2cc([N+](=O)[O-])ccc2Cl)cc1 was tested, and the Potency was inconclusive: 23.8 µM [inhibitor, partial curve].
CC(=O)Nc1cc(=O)c2cccnc2[nH]1 was tested, and the Potency was inconclusive: 33.6 µM [inhibitor, single point].
In the case of CC(C)Oc1ccc(C2CCC(=O)NC2=O)cc1 (stereo not given), the Potency was inconclusive: 21.2 µM [inhibitor, partial curve].
Cc1cc(C)nc(S/C=C/C(=O)c2ccccc2F)n1 was tested, and the Potency was active: 4.74 µM.
For Cc1ccc(C2=Nc3cccnc3C(c3ccccc3)=NN2)cc1, the max response, negative = inhibition was inactive: -11.7%.
With CCOC(=O)c1cnc2c(OC)cccc2c1N1CCN(c2ccc(OC)cc2)CC1 the Potency was active: 23.8 µM.
Cc1cc2nc(N)sc2cc1[N+](=O)[O-] was tested, and the max response, negative = inhibition was inconclusive: -34.6% [inhibitor].
For Cc1nn(CC(C)C)c(Cl)c1C(=O)NCC1CCCO1 (stereo not given), the max response, negative = inhibition was inactive: 3.91%.
For Cc1nnc(NC(=O)c2c(-c3ccccc3Cl)noc2C)s1, the max response, negative = inhibition was inactive: -6.24%.
NS(=O)(=O)c1ccc(N=Nc2c[nH]c(=O)c(O)c2)cc1 was tested, and the Potency was inconclusive: 21.2 µM [inhibitor, partial curve].
In the case of Cc1[nH]c(=O)[nH]c1C(=O)CCCCC(=O)O, the max response, negative = inhibition was inactive: -4.07%.
For O=C(O)C(c1ccccc1)N1C(=O)/C(=C\c2ccc(-c3cccc(Cl)c3)o2)SC1=S (stereo not given), the Potency was inconclusive: 18.9 µM [inhibitor, partial curve].
With O=C(O)c1ccc(CSc2nc3ccc(N4C(=O)C5C6C=CC(C6)C5C4=O)cc3s2)cc1 (stereo not given) the max response, negative = inhibition was inactive: -7.03%.
For OC(c1ccc(F)cc1)c1ncc(-c2cccc(C(F)(F)F)c2)[nH]1 (stereo not given), the max response, negative = inhibition was inactive: 1.19%.
For NC(=O)c1csc(-c2ccncc2)n1, the max response, negative = inhibition was inactive: -11.1%.
CCCCN(C)CCCNC(=O)C1CCC(CNS(=O)(=O)c2c(C)cc(C)cc2C)CC1 (stereo not given) was tested, and the Potency was active: 21.2 µM.
With CC(=O)Oc1ccc(N2C(=O)C3C4C=CC(C5CC45)C3C2=O)cc1[N+](=O)[O-] (stereo not given) the max response, negative = inhibition was inactive: -11.9%.
In the case of COc1ccc(C)cc1NC(=O)CSc1nnc2ccc(-c3ccncc3)nn12, the max response, negative = inhibition was inactive: -9.48%.
With COc1ccccc1/C=C/CN1CCC(n2nccc2NC(=O)C2CC2)CC1 the max response, negative = inhibition was inactive: 0.513%.
Cc1cccc(Cl)c1NC(=S)NN was tested, and the max response, negative = inhibition was inactive: -0.0932%.
C=CCn1c(=O)/c(=C/c2cc(OC)c(OC)c(OC)c2)s/c1=C(/C#N)c1nc2ccccc2n1C was tested, and the Potency was inconclusive: 21.2 µM [inhibitor, partial curve].
For C=CCn1c(SCC2CCCCO2)nc2sc(CC)cc2c1=O (stereo not given), the Potency was active: 26.7 µM.
Nc1nc(=S)ss1 was tested, and the Potency was active: 23.8 µM.
For CCN1CCCc2cc(CN(CCN3CCOCC3)C(=S)Nc3ccccc3OC)ccc21, the max response, negative = inhibition was inactive: -18.1%.
In the case of C=CCN1C(c2ccccc2)=CS/C1=C(\C#N)c1nnc2n1CCCCC2, the max response, negative = inhibition was inactive: -16.9%.
For Cc1ccc(/C=C2\CCOC2=O)cc1, the Potency was inconclusive: 21.2 µM [inhibitor, single point].
With CCCN(CC(=O)Nc1ccccc1OC)Cc1c(O)ccc2ccccc12 the Potency was active: 9.47 µM.
In the case of CC(C)(C)OC(=O)C(Cl)(C(=O)OC(C)(C)C)c1ccc2nnnn2n1, the Potency was inconclusive: 15 µM [inhibitor, partial curve].
COc1ccc(S(=O)(=O)Nc2cccc(-c3ccc4nncn4n3)c2)c(OC)c1 was tested, and the Potency was active: 16.8 µM.
C=CCn1c(CCNC(=O)c2cccs2)nnc1SCC(=O)c1cccc([N+](=O)[O-])c1 was tested, and the max response, negative = inhibition was inactive: -26.3%.
